No constants are given. Whether binding was seen depends on the method and setting. Some entries that bind do so weakly or less than the wild type.

The chains behind the UniProt entries cited, without tags or fusion partners. Residues count along the entry.
UniProt P14778, residues 18-332: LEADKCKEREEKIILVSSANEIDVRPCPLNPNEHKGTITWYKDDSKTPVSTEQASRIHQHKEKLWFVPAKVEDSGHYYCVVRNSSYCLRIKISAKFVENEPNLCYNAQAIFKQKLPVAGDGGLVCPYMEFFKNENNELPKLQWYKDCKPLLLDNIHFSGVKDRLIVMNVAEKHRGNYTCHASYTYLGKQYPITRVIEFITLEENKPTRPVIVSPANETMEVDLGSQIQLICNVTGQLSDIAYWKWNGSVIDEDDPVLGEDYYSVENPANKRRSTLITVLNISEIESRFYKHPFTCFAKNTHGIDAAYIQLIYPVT

The target of experiment [1] is human IL1R1 (human) (UniProt P14778). Nature of the experiment: figure legend; ELISA, IL1R1 coated, anti-Avi Tag detection. (ELISA stands for enzyme-linked immunosorbent assay.)
The target is the same in experiment [2]. Nature of the experiment: ELISA, IL1R1 coated, anti-Avi Tag detection.

B1: G2-VHH (also referred to as VHH-G2) (VHH)
VHH: QVQLVESGGGLVQPGGSLRLSCAASGFTMGDYAIGWFRQVPGKEREGLSYSTKNGIKAYADSVRDRFTISRENAKNTVYLQMNSLKPEDTAVYYCAASTRFGGLLVSRYDYWGQGTQVTVSS
For B1, the binding result with human IL1R1 (human) [1] and with human IL1R1 (human) [2] was “binds” throughout.

(Values after patent US20260258116A1.)
